These are yes or no findings as the source states them, for the method shown. For some of these results: Binding seen in cells or lysates may run through a third protein. Some binding calls cover weakened binding; strength is not graded here. For some of these results: Where a sequence is shown, tags or fusion partners need not be part of it.
B1: ANGUSTIFOLIA (AN) in pACT, yeast two-hybrid prey (protein, UniProt O23702 1-636)
chain: MSKIRSSATMPHRDQPSPASPHVVTLNCIEDCALEQDSLAGVAGVEYVPLSRIADGKIESATAVLLHSLAYLPRAAQRRLRPHQLILCLGSADRAVDSTLAADLGLRLVHVDTSRAEEIADTVMALILGLLRRTHLLSRHALSASGWLGSLQPLCRGMRRCRGMVLGIVGRSVSARYLASRSLAFKMSVLYFDVPEGDEERIRPSRFPRAARRMDTLNDLLAASDVISLHCALTNDTVQILNAECLQHIKPGAFLVNTGSCQLLDDCAVKQLLIDGTIAGCALDGAEGPQWMEAWVKEMPNVLILPRSADYSEEVWMEIREKAISILHSFFLDGVIPSNTVSDEEVEESEASEEEEQSPSKHEKLAIVESTSRQQGESTLTSTEIVRREASELKESLSPGQQHVSQNTAVKPEGRRSRSGKKAKKRHSQQKYMQKTDGSSGLNEESTSRRDDIAMSDTEEVLSSSSRCASPEDSRSRKTPLEVMQESSPNQLVMSSKKFIGKSSELLKDGYVVALYAKDLSGLHVSRQRTKNGGWFLDTLSNVSKRDPAAQFIIAYRNKDTVGLRSFAAGGKLLQINRRMEFVFASHSFDVWESWSLEGSLDECRLVNCRNSSAVLDVRVEILAMVGDDGITRWID
B2: GST:AN (fusion of glutathione-S-transferase to ANGUSTIFOLIA) (protein, UniProt O23702 1-636)
chain: MSKIRSSATMPHRDQPSPASPHVVTLNCIEDCALEQDSLAGVAGVEYVPLSRIADGKIESATAVLLHSLAYLPRAAQRRLRPHQLILCLGSADRAVDSTLAADLGLRLVHVDTSRAEEIADTVMALILGLLRRTHLLSRHALSASGWLGSLQPLCRGMRRCRGMVLGIVGRSVSARYLASRSLAFKMSVLYFDVPEGDEERIRPSRFPRAARRMDTLNDLLAASDVISLHCALTNDTVQILNAECLQHIKPGAFLVNTGSCQLLDDCAVKQLLIDGTIAGCALDGAEGPQWMEAWVKEMPNVLILPRSADYSEEVWMEIREKAISILHSFFLDGVIPSNTVSDEEVEESEASEEEEQSPSKHEKLAIVESTSRQQGESTLTSTEIVRREASELKESLSPGQQHVSQNTAVKPEGRRSRSGKKAKKRHSQQKYMQKTDGSSGLNEESTSRRDDIAMSDTEEVLSSSSRCASPEDSRSRKTPLEVMQESSPNQLVMSSKKFIGKSSELLKDGYVVALYAKDLSGLHVSRQRTKNGGWFLDTLSNVSKRDPAAQFIIAYRNKDTVGLRSFAAGGKLLQINRRMEFVFASHSFDVWESWSLEGSLDECRLVNCRNSSAVLDVRVEILAMVGDDGITRWID

Key:
[1] = target: T1, STRUBBELIG intra-cellular domain (SUBICD, residues 371 to 768) in pGBKT7 (Arabidopsis thaliana) (UniProt Q8RWZ1); assay: two-hybrid; Matchmaker system (Clontech), yeast strain AH109; SUB fragments in pGBKT7, AN in pACT; growth on SC-LWH at 30°C with 2.5 mM 3-amino-1,2,4-triazole
T1 sequence: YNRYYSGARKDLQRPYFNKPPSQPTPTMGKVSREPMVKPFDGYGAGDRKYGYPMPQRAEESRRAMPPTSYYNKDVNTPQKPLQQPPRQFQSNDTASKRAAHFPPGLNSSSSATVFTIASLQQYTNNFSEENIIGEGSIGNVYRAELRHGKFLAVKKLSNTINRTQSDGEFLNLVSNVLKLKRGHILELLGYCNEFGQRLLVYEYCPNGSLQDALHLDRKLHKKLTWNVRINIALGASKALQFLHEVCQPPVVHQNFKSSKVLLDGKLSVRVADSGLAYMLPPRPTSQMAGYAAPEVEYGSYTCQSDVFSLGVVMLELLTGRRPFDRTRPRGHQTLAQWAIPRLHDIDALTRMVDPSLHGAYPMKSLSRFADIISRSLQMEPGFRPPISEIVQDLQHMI

[2] = target: T2, STRUBBELIG extra-cellular domain (SUBECD, residues 26 to 340) in pGBKT7 (Arabidopsis thaliana) (UniProt Q8RWZ1); assay: as above
T2 sequence: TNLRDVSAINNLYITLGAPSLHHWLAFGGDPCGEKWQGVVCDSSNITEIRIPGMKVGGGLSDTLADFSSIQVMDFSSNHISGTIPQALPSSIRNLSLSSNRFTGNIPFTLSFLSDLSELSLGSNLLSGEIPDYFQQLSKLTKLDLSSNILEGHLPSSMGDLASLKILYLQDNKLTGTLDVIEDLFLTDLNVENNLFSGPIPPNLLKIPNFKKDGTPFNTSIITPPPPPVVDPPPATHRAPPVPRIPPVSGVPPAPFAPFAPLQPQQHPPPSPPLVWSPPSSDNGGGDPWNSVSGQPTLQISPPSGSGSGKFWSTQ

[3] = target: T3, STRUBBELIG intra-cellular domain variant SUBICD-R599C in pGBKT7 (Arabidopsis thaliana) (UniProt Q8RWZ1); assay: as above
T3 sequence: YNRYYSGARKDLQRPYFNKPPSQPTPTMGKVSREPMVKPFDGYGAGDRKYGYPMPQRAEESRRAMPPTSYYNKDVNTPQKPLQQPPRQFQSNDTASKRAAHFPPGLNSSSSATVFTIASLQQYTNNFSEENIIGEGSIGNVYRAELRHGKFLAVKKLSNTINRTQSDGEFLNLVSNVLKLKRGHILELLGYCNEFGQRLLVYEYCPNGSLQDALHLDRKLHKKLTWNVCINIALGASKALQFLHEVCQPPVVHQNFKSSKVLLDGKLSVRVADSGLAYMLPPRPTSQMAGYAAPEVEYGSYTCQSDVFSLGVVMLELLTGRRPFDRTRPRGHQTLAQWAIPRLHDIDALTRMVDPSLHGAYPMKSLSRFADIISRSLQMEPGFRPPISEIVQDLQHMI

[4] = target: T4, MBP:SUBICD (intra-cellular domain of STRUBBELIG fused to maltose-binding protein) (Arabidopsis thaliana) (UniProt Q8RWZ1); assay: pull-down; MBP-tagged proteins held on amylose resin, incubated with equal amounts of GST:AN lysate for 4 hours at 4°C; western blot with anti-AN antibody; only the target purified
T4 sequence: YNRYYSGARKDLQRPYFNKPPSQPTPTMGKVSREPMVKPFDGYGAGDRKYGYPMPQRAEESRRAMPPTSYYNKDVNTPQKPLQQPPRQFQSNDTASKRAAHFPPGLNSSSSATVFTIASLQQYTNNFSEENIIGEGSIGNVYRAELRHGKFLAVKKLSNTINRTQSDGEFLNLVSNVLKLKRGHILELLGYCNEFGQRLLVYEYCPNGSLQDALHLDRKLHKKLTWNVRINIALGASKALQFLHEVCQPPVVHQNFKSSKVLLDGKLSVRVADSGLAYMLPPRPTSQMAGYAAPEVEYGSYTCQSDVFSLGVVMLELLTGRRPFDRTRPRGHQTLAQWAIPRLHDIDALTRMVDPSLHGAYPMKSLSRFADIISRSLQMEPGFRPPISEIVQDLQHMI

Binder	binding [1]	binding [2]	binding [3]	binding [4]
B1	binds	no binding	no binding	
B2				binds

From publication PMC3599385
